Laboratory results taken from PMC10929188.
Results are given in words; binding and its absence hold for the method and conditions named. Binding seen in cells or lysates may run through a third protein. Some entries that bind do so weakly or less than the wild type.

Chains of the proteins cited; added tags and fusions are not shown.
UniProt P35222: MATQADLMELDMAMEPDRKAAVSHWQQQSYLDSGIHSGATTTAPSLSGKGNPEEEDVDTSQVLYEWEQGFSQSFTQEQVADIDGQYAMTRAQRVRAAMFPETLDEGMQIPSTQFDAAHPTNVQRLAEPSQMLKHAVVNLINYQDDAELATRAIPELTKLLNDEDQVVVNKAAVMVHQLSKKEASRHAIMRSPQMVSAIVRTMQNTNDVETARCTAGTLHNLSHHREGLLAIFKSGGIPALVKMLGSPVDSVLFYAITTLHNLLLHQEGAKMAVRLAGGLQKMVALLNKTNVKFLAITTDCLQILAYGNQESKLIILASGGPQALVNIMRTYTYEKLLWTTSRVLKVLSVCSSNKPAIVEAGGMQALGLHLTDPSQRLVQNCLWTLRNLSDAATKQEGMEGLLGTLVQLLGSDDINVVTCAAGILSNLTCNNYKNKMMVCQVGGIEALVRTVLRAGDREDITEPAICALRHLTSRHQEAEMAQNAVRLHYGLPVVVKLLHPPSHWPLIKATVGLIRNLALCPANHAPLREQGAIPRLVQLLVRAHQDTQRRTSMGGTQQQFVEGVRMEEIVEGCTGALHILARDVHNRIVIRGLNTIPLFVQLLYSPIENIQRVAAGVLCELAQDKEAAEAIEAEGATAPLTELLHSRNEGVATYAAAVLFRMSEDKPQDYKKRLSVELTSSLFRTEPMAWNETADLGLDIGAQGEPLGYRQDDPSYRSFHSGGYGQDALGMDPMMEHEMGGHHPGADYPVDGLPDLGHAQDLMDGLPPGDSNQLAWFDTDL
UniProt P63104: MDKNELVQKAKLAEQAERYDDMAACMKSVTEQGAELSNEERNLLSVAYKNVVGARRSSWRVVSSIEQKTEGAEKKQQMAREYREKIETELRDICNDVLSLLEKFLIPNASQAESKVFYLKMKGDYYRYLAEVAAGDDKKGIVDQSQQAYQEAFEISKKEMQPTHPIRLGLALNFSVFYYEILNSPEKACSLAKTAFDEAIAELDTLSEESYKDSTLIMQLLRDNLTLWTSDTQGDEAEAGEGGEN

Target: β-catenin (human (endogenous in MHCC-97H)) (UniProt P35222)
Assay: co-IP; HCC cell lysates (MHCC-97H), about 1 ug/uL protein, 1 ug antibody against the target protein at 4 C for 12 h, protein A agarose beads, washed with RIPA lysate buffer, western blot; cells transfected with YWHAZ plasmid, siSLC2A1-DT, SLC2A1-DT plasmid or siYWHAZ

- binding: binds
Substance: tyrosine 3-monooxygenase/tryptophan 5-monooxygenase activation protein zeta (YWHAZ) (from UniProt P63104 1-245)
